Assay results from article PMC5833452.
Results are given in words; binding and its absence hold for the method and conditions named. Binding seen in cells or lysates may run through a third protein. Some results given as binding are weak or reduced against the parent protein; the word gives no strength.

Sequences of proteins named here, by UniProt entry; tags and fusion partners are left off. A change or cut given only in a name is not applied to a line headed by its entry.
UniProt Q96KQ7: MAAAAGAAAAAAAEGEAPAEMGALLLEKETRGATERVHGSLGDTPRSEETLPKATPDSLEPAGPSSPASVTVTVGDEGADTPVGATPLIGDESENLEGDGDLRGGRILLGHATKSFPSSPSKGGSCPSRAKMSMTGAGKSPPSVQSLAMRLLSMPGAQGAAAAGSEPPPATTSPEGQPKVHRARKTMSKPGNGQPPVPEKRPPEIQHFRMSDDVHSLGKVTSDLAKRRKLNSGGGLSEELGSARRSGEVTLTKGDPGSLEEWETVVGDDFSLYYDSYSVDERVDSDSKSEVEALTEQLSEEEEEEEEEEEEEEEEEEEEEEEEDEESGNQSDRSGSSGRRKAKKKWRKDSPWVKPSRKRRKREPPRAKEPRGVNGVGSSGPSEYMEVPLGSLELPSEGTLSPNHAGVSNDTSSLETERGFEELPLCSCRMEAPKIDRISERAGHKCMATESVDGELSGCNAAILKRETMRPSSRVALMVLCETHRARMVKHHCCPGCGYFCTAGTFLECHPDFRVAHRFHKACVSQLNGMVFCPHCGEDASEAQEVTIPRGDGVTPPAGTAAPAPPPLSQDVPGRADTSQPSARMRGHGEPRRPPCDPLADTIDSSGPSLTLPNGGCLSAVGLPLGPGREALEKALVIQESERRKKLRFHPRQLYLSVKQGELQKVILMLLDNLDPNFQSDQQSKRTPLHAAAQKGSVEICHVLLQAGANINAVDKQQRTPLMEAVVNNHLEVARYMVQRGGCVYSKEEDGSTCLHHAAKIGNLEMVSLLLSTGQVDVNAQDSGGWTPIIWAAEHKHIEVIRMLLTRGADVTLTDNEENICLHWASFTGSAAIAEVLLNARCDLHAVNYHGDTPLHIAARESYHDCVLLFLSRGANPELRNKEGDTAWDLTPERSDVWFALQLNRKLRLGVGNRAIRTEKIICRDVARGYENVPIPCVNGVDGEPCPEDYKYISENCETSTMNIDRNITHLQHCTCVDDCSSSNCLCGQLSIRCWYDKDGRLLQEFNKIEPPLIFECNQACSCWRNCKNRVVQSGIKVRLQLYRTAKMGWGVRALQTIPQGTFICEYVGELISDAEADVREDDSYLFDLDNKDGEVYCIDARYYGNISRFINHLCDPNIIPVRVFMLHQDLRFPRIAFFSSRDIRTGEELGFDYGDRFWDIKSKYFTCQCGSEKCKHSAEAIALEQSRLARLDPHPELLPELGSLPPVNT
UniProt P04150: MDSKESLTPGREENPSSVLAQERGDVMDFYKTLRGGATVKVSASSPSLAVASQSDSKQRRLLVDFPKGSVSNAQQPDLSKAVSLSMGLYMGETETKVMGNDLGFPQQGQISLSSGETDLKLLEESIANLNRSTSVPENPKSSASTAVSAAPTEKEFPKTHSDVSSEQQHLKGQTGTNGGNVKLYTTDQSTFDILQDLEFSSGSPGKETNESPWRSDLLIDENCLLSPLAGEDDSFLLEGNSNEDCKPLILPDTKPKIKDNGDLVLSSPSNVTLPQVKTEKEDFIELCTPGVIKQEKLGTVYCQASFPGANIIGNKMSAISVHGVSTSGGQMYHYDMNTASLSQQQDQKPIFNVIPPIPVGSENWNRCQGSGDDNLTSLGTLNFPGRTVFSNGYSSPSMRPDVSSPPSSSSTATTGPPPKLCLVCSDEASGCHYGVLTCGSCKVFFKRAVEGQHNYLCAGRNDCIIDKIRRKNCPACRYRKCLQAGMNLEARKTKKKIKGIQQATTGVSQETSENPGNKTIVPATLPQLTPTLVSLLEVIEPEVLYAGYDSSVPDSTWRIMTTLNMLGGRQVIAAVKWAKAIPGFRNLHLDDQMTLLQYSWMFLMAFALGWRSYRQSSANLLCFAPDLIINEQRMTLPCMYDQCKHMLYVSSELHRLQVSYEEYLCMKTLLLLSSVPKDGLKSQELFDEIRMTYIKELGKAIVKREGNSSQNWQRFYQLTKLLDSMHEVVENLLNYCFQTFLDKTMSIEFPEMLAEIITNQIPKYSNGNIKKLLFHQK

Target: G9A (human (endogenous in BGC-823)) (UniProt Q96KQ7)
Test: co-IP; endogenous G9A, GR and P300 immunoprecipitated from BGC-823 cells stimulated with DEX, examined by western blotting; protocol as in ref. 32

binding: binds
Substance: GR (from UniProt P04150 1-777)
